Measurements reported in patent US20240327382A1 (ALMAC DISCOVERY LIMITED, priority 2021, published 2024).

Legend:
[1] = Predicted hepatic clearance using mouse liver microsome data; type: in vitro ADME
[2] = Kinetic solubility (KSol); type: physicochemical

For `O=C(N1CC/C(=C/n2cnc(-c3ccccc3)cc2=O)C2(CCCC2)C1)N1CCNC[C@H]1c1ccccc1`, the “HLM CLhep” value [1] was 3 mL/min/kg and the KSol [2] was 3 µM.

Structures were worked out from names or drawings and are uncertain.
